# Results are given in words; binding and its absence hold for the method and conditions named.
# Assays:
# [1] = target: calaxin (Ciona intestinalis) (UniProt Q8T893); test: SAXS; Ca2+-bound calaxin in solution, 0.25, 0.5, 1.0 and 1.75 mg/mL, 20 mM Tris-HCl (pH 8.0), 150 mM NaCl, 1 mM DTT, 10 mM CaCl2, 25 °C; Guinier analysis, molecular weight from I(0) with BSA as standard; both purified
# [2] = target: calaxin (Ciona intestinalis) (UniProt Q8T893); test: SAXS; Mg2+-bound calaxin in solution, 0.25, 0.5, 1.0 and 2.0 mg/mL, 20 mM Tris-HCl (pH 8.0), 150 mM NaCl, 1 mM DTT, 10 mM MgCl2, 25 °C; Guinier analysis, molecular weight from I(0) with BSA as standard; both purified
binder,measurement,setting,value
"calaxin (protein, UniProt Q8T893 1-203) MSKKNQKLAEELYKTSCQKHFTKTEVESLIICYKNLLEGLKMDRNLFRDILHQKFNMTEDLLMDRVFRAFDKDSDSYISLTEWVEGLSVFLRGTLDEKMEYTFTVFDLNGDGYISREEMFQMLKTCLVKQPTEEDPDEGIKDLVEIALKKMDHDHDSRLSKKDFKDAVLIEPLLLEAFGKCLPDEKSSEIFEYHVLGVKQCRG",binding,[1],"no binding (tested: 0.25, 0.5, 1.0 and 1.75 mg/mL)"
same,binding,[2],"no binding (tested: 0.25, 0.5, 1.0 and 2.0 mg mL^-1)"

# Source: publication PMC5792641
